According to US20250185657A1, “PEST CONTROLLING AGENT” (priority 2022, published 2025):
Some of these results come from one statement about several compounds together. For at least one compound, name, drawing or mass did not settle the structure.

Tests used:
Format in all cases: in vivo
[1] = tested on: Cotton Aphid (Aphis gossypii); assay: Cotton aphid control test (leaf piece application treatment); settings: 200 ppm, sprayed on cucumber leaf piece, nymphs, five days after the treatment, 25° C.
Protocol: (§1) The insect mortality rate and the feeding damage prevention effect shown in the Biological Test Examples were calculated based on the following expression.
Biological Test Example 1: Cotton Aphid (Aphis gossypii) Control Test (Leaf Piece Application Treatment)
A cucumber leaf was cut into a piece having a diameter of 3.5 cm and placed on absorbent cotton moistened with water. Two adult cotton aphids were released thereon, and allowed to lay nymphs for 24 hours, and then the adults were removed. 2 mL of a diluted solution of the test compound diluted to 200 ppm was applied onto the resulting cucumber leaf by using an spray tower. The cucumber leaf was air-dried and then placed in a plastic cup together with the absorbent cotton, the cup was covered with a lid, and the nymphs were reared in a constant temperature chamber at 25° C.

[2] = tested on: Diamondback Moth (Plutella xylostella); assay: Diamondback moth control test (leaf piece dipping treatment); settings: 200 ppm, cabbage leaf piece dipped, third instar, five days after the treatment, 25° C.
Protocol: as §1
Biological Test Example 3: Diamondback Moth (Plutella xylostella) Control Test (Leaf Piece Dipping Treatment)
(§2) A cabbage leaf was cut into a piece having a diameter of 5.0 cm, and this cabbage leaf piece was immersed in 20 mL of a diluted solution of the test compound diluted to 200 ppm, and air-dried. After air-drying, the cabbage leaf piece was placed in a plastic cup, 10 third instar diamondback moth nymphs were released thereinto, the cup was covered with a lid, and the nymphs were reared in a constant temperature chamber at 25° C.

[3] = tested on: Tobacco Cutworm (Spodoptera litura); assay: Tobacco cutworm control test (leaf piece dipping treatment); settings: 200 ppm, cabbage leaf piece dipped, second instar larvae, five days after the treatment, 25° C.
Protocol: as §1
Biological Test Example 5: Tobacco Cutworm (Spodoptera litura) Control Test (Leaf Piece Dipping Treatment)
as §2, with “5 second” for “10 third”, “tobacco cutworm larvae” for “diamondback moth nymphs”, “larvae” for “nymphs”

Compound | insect mortality rate [1] | insect mortality rate [2] | insect mortality rate [3]
CCS(=O)(=O)c1cc(-c2ccc(F)cc2)cnc1-c1noc(=S)n1-c1cc(C(F)(F)F)ccn1 [Compound 137] | ≥ 80% | ≥ 80% | ≥ 80%
CCS(=O)(=O)c1c(-c2noc(=O)n2-c2cc(C(F)(F)F)ccn2)ncc2ccc(Cl)cc12 [Compound 155] | ≥ 80% | ≥ 80% | ≥ 80%
CCS(=O)(=O)c1c(-c2noc(=O)n2-c2cc(C(F)(F)F)ccn2)nc(C)c2cc(Br)ccc12 [Compound 183] | ≥ 80% | ≥ 80% | ≥ 80%
CCS(=O)(=O)c1cc(-c2ccc(F)cc2)c(C)nc1-c1noc(=O)n1-c1cc(C(F)(F)F)ccn1 [Compound 44] | ≥ 80% | ≥ 80% | ≥ 80%
CCS(=O)(=O)c1c(-c2noc(=O)n2-c2cc(C(F)(F)F)ccn2)ncc2c(Br)cccc12 [Compound 172] | ≥ 80% | ≥ 80% | ≥ 80%
CCS(=O)(=O)c1c(-c2noc(=O)n2-c2ccc(C(F)(F)F)cn2)nc2ccc(C(F)(F)F)cn12 [Compound 61] | ≥ 80% | ≥ 80% | ≥ 80%
CCS(=O)(=O)c1cc(-c2ccc(C#N)cc2F)cnc1-c1noc(=O)n1-c1ccc(C(F)(F)C(F)(F)F)cn1 [Compound 35] | ≥ 80% | ≥ 80% | ≥ 80%
CCS(=O)(=O)c1cc(-c2ccc(F)cc2)cnc1-c1noc(=O)n1-c1ccc(C(F)(F)F)c(Cl)n1 [Compound 73] | ≥ 80% | ≥ 80% | ≥ 80%
CNS(=O)(=O)c1cc2cc(Cl)ccc2nc1-c1noc(=O)n1-c1cc(C(F)(F)F)ccn1 [Compound 209] | ≥ 80% | ≥ 80% | ≥ 80%
CCS(=O)(=O)c1cc(-c2ccc(C(F)(F)F)cn2)cnc1-c1noc(=O)n1-c1ccc(C(F)(F)F)cn1 [Compound 211] | ≥ 80% | ≥ 80% | ≥ 80%
CCS(=O)(=O)c1cc(-c2ccc(F)cc2)cnc1-c1noc(=O)n1-c1cc(C(F)(F)F)ccn1 [Compound 13] | ≥ 80% | ≥ 80% | ≥ 80%
CCS(=O)(=O)c1cc(-c2cccc(F)c2F)cnc1-c1noc(=O)n1-c1ccc(C(F)(F)F)cn1 [Compound 54] | ≥ 80% | ≥ 80% | ≥ 80%
CCS(=O)(=O)c1cc(-c2ccc(Br)cc2)cnc1-c1noc(=O)n1-c1ccc(C(F)(F)C(F)(F)F)cn1 [Compound 159] | ≥ 80% | ≥ 80% | ≥ 80%
CCS(=O)(=O)c1cc(-c2ncc(Cl)s2)cnc1-c1noc(=O)n1-c1ccc(C(F)(F)F)cn1 [Compound 112] | ≥ 80% | ≥ 80% | ≥ 80%
CCS(=O)(=O)c1cc(-c2ccc(F)cc2)cnc1-c1noc(=O)n1-c1ncc(C(F)(F)F)cc1C [Compound 76] | ≥ 80% | ≥ 80% | ≥ 80%
CCS(=O)(=O)c1cc(-c2ccc(F)cc2)cnc1-c1noc(=O)n1-c1cc(C(F)(F)C(F)(F)F)ccn1 [Compound 9] | ≥ 80% | ≥ 80% | ≥ 80%
CCS(=O)(=O)c1cc(-c2ccc(C#N)cc2)cnc1-c1noc(=O)n1-c1ccc(C(F)(F)C(F)(F)F)cn1 [Compound 19] | ≥ 80% | ≥ 80% | ≥ 80%
CCS(=O)(=O)c1cc(-c2ccc(F)cc2)cnc1-c1noc(=S)n1-c1ccc(OC(F)(F)F)cn1 [Compound 104] | ≥ 80% | ≥ 80% | ≥ 80%
CN(C)S(=O)(=O)c1c(-c2noc(=O)n2-c2cc(C(F)(F)F)ccn2)ncc2cc(Cl)ccc12 [Compound 215] | ≥ 80% | ≥ 80% | ≥ 80%
CCS(=O)(=O)c1c(-c2noc(=O)n2-c2ccc(C(F)(F)F)cn2)ncc2c(Br)cccc12 [Compound 170] | ≥ 80% | ≥ 80% | –

Compound | insect mortality rate [1] | insect mortality rate [2] | insect mortality rate [3]
CCS(=O)(=O)c1cc(Br)cnc1-c1noc(=O)n1-c1ccc(C(F)(F)F)cn1 [Compound 11] | ≥ 80% | ≥ 80% | –
CCS(=O)(=O)c1c(-c2noc(=O)n2-c2cc(C(F)(F)F)ccn2)ncc2cc(-c3ccc(F)cc3)ccc12 [Compound 164] | ≥ 80% | ≥ 80% | ≥ 80%
CCS(=O)(=O)c1cc(Br)cnc1-c1noc(=O)n1-c1cc(C(F)(F)F)ccn1 [Compound 37] | ≥ 80% | ≥ 80% | ≥ 80%
CCS(=O)(=O)c1cc(-c2ccc(OC(F)(F)F)cc2)cnc1-c1noc(=S)n1-c1cc(C#N)ccn1 [Compound 107] | ≥ 80% | ≥ 80% | ≥ 80%
CCS(=O)(=O)c1cc(-c2ccc(Cl)cc2)cnc1-c1noc(=O)n1-c1ccc(C(F)(F)F)cn1 [Compound 49] | ≥ 80% | ≥ 80% | ≥ 80%
CCS(=O)(=O)c1cc(-c2ccc(OC(F)(F)F)cc2)cnc1-c1noc(=O)n1-c1ccc(C(F)(F)C(F)(F)F)nn1 [Compound 180] | ≥ 80% | ≥ 80% | ≥ 80%
CCS(=O)(=O)c1cc(-c2ccc(Br)cc2)cnc1-c1noc(=O)n1-c1ccc(C(F)(F)F)cn1 [Compound 50] | ≥ 80% | ≥ 80% | ≥ 80%
CCSc1c(-c2noc(=O)n2-c2cc(C(F)(F)F)ccn2)ncc2cc(Br)ccc12 [Compound 160] | ≥ 80% | ≥ 80% | ≥ 80%
CCS(=O)(=O)c1cc(-c2ccc(F)cc2)cnc1-c1noc(=O)n1-c1cc(C2(C#N)CC2)ccn1 [Compound 142] | ≥ 80% | ≥ 80% | ≥ 80%
CCS(=O)(=O)c1cc2cc(Cl)ccc2nc1-c1noc(=O)n1-c1cc(C(F)(F)F)ccn1 [Compound 162] | ≥ 80% | ≥ 80% | ≥ 80%
CCS(=O)(=O)c1cc2cc(Br)ccc2nc1-c1noc(=O)n1-c1ccc(C(F)(F)F)cn1 [Compound 148] | ≥ 80% | ≥ 80% | ≥ 80%
CCS(=O)(=O)c1cc(-c2ccc(C(F)(F)F)cc2)cnc1-c1noc(=O)n1-c1cc(C(F)(F)F)ccn1 [Compound 176] | ≥ 80% | ≥ 80% | ≥ 80%
CCS(=O)(=O)c1cc(-c2cc(F)ccc2F)cnc1-c1noc(=O)n1-c1ccc(C(F)(F)F)cn1 [Compound 53] | ≥ 80% | ≥ 80% | ≥ 80%
CCS(=O)(=O)c1cc(-c2ccc(F)cc2F)cnc1-c1noc(=O)n1-c1ccc(C(F)(F)C(F)(F)F)cn1 [Compound 22] | ≥ 80% | ≥ 80% | ≥ 80%
CCS(=O)(=O)c1cc(-c2ccc(C)cc2)cnc1-c1noc(=O)n1-c1cc(C(F)(F)F)ccn1 [Compound 84] | ≥ 80% | ≥ 80% | ≥ 80%
CCS(=O)(=O)c1cc(-c2ccc(F)cc2F)cnc1-c1noc(=O)n1-c1ccc(C(F)(F)F)cn1 [Compound 48] | ≥ 80% | ≥ 80% | ≥ 80%
CCS(=O)(=O)c1cc(-c2ccc(Cl)s2)cnc1-c1noc(=O)n1-c1ccc(C(F)(F)C(F)(F)F)cn1 [Compound 20] | ≥ 80% | ≥ 80% | ≥ 80%
CCS(=O)(=O)c1c(-c2noc(=O)n2-c2cc(C(F)(F)F)ccn2)ncc2cc(F)ccc12 [Compound 166] | ≥ 80% | ≥ 80% | –
CCS(=O)(=O)c1cc(-c2ccc(F)cc2)cnc1-c1noc(=O)n1-c1ncc(C(F)(F)F)cn1 [Compound 72] | ≥ 80% | ≥ 80% | –
CCS(=O)(=O)c1c(-c2noc(=O)n2-c2ccc(C(F)(F)F)cn2)nc2ccc(F)cn12 [Compound 83] | ≥ 80% | ≥ 80% | –
